# Test results: patent publication US8835422B2, “Substituted imidazoheterocycle derivatives” (Cara Therapeutics, Inc., priority 2008, dated 2014)
# By UniProt entry, the sequences of proteins in these tests, tags left out.
# UniProt P21554, whole entry: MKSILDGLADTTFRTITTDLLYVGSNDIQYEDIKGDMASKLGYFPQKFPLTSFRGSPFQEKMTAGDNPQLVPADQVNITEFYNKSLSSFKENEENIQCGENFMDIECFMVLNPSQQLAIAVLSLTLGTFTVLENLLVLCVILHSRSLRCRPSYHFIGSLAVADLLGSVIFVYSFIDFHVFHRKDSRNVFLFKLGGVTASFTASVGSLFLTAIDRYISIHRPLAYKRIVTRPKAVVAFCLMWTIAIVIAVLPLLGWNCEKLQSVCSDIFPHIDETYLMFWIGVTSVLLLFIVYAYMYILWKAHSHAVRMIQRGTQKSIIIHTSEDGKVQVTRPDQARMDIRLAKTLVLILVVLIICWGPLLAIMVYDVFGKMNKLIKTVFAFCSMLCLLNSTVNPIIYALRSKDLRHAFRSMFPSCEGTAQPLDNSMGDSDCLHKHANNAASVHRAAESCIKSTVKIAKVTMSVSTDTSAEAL
# Some entries share one result that the patent states for a list of compounds.
# Target: human CB1 receptor (hCB1) (Homo sapiens, UniProt P21554)
# Experiment: cAMP assay (LANCE TR-FRET) in CHO-K1 cells stably expressing hCB1
# Type: cell-based
# Details: text statement b297
# Method: The ability of compounds to act as agonists or inverse agonists at human CB2 and CB1 receptors (hCB2, hCB1, respectively) and at the rat CB2 receptor (rCB2) was determined by measuring changes in intracellular cAMP levels. Chinese Hamster Ovary (CHO-K1) cell lines stably expressing hCB2 (Genebank: X74328) or hCB1 (Genebank: X54937) were purchased from Euroscreen (Gosselies, Belgium). The rat CB2 receptor was expressed from genomic DNA (provided by M. Abood, California Pacific Medical Center) in CHO-K1 cells from expression plasmid vector, pcDNA3.1.
# Receptor mediated responses were determined by measuring changes in intracellular cAMP using LANCE cAMP detection kit (cat #AD0264, Perkin Elmer, Wellesley, Mass.) based on time-resolved fluorescence resonance energy transfer (TR-FRET).
# On the day of the experiment, cells were spun at low speed for 5 min at room temperature. […] The reagents were allowed to equilibrate for three hours prior to reading on an Envision multi-mode detector (Perkin-Elmer). TR-FRET was measured using a 330-380 nm excitation filter, a 665 nm emission filter, dichroic mirror 380 nm and Z=1 mm. Cyclic AMP concentrations in each well were back-calculated from a cAMP standard curve run concurrently during each assay. […] Concentrations of cAMP were expressed as a percent of the difference of these two groups of wells.
compound,measurement,value
"Cc1nnc(-c2nc(-c3ccc(F)c(F)c3)n3c2CCCCC3)o1 [Compound 4-1, 2-(3-(3,4-difluorophenyl)-6,7,8,9-tetrahydro-5H-imidazo[1,5-a]azepin-1-yl)-5-methyl-1,3,4-oxadiazole]",EC50,> 10 µM
